Experimental data as given in article PMC12203913.

System: UV-DDB (DDB1-DDB2) (Homo sapiens)
Test: EMSA
Conditions: 50x unlabeled undamaged competitor (200 nM), affinity significantly reduced; 5'-phosphate on strand 1; EMSA: 50 mM Tris-HCl pH 7.5, 100 mM NaCl, 0.1 mg/ml BSA, 1 mM DTT, 23°C, 45 min; recombinant protein; label: 5'-FAM on strand 2

Sequence: TGCATGCGGCCGCTCTTCCCATGGTGCGATCGCTCTTCG (double strand) [undamaged 39 bp DNA (λ-I3_Dup / λ-I3_comp_FAM)]
- binding result: binds more weakly

Construct, isoform or probe ends are uncertain for at least one entry. The comparison behind a weaker result is the experiment's own reference, which may not be listed here.
